Data as given in PubChem BioAssay AID1224830 (NIAID, 2016).

Assay: 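Genes whose knock-down alters the TNF-alpha reporter response to LPS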 (primary screen)
System: human THP-1 monocytic leukaemia cells, TNF dual-luciferase reporter clone, PMA-differentiated to macrophage-like cells
Reagents: siRNA pool against human genes, 50 nM
Duration: LPS for 4 h, given about 3 days after siRNA transfection
Challenge: bacterial LPS (TLR4 ligand), 10 ng/ml
Read-out: 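Ratio of firefly to renilla light, scaled to the plate median and expressed as a robust z-score per replicate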
Direction: TNF reporter robust z-score: higher = stronger TNF reporter response to LPS
Active means: 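Each well counts as active if its z-score is over 2.8 or under -1.5; controls are left without a call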
In all, the deposit lists about 18,000 reagents; below is a random part of them. In the full data, about 2,900 (16%) were called active. 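Calls are made per well; low scores hint the gene aids the LPS response, high scores that it dampens it.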 Repeated entries: four replicate wells of each siRNA pool. Reagent sequences are not shown.

target | TNF reporter robust z-score | Outcome
TOE1 (GeneID 114034) | -0.28 | inactive
TOE1 (GeneID 114034) | 0.21 | inactive
TOE1 (GeneID 114034) | 1.82 | inactive
TOE1 (GeneID 114034) | 2.01 | inactive
NTRK1 (GeneID 4914) | -1.49 | inactive
NTRK1 (GeneID 4914) | 0.23 | inactive
NTRK1 (GeneID 4914) | -1.08 | inactive
NTRK1 (GeneID 4914) | 0.44 | inactive
AHCYL1 (GeneID 10768) | -0.71 | inactive
AHCYL1 (GeneID 10768) | -0.37 | inactive
AHCYL1 (GeneID 10768) | -0.35 | inactive
AHCYL1 (GeneID 10768) | -0.6 | inactive
ZIM2 (GeneID 23619) | -0.45 | inactive
ZIM2 (GeneID 23619) | 0.02 | inactive
ZIM2 (GeneID 23619) | -0.36 | inactive
ZIM2 (GeneID 23619) | -0.71 | inactive
MCAM (GeneID 4162) | 0.57 | inactive
MCAM (GeneID 4162) | 1.45 | inactive
MCAM (GeneID 4162) | 1.05 | inactive
MCAM (GeneID 4162) | 1.64 | inactive
CD27 (GeneID 939) | -0.27 | inactive
CD27 (GeneID 939) | 0.21 | inactive
CD27 (GeneID 939) | -0.5 | inactive
CD27 (GeneID 939) | 0.62 | inactive
XTBD1 (GeneID 91368) | 1.17 | inactive
XTBD1 (GeneID 91368) | 1.23 | inactive
XTBD1 (GeneID 91368) | 1.98 | inactive
XTBD1 (GeneID 91368) | 1.73 | inactive
HYCC1 (GeneID 84668) | 0.98 | inactive
HYCC1 (GeneID 84668) | 0.13 | inactive
HYCC1 (GeneID 84668) | 0.11 | inactive
HYCC1 (GeneID 84668) | 2.26 | inactive
IFNA1 (GeneID 3439) | 1.09 | inactive
IFNA1 (GeneID 3439) | -0.35 | inactive
IFNA1 (GeneID 3439) | 2.83 | active
IFNA1 (GeneID 3439) | 0.27 | inactive
H4C16 (GeneID 121504) | 1.44 | inactive
H4C16 (GeneID 121504) | 1.05 | inactive
H4C16 (GeneID 121504) | 0.34 | inactive
H4C16 (GeneID 121504) | 0.56 | inactive

Quoted from above, 16 entries:
target | TNF reporter robust z-score | Outcome
TOE1 (GeneID 114034) | 1.82 | inactive
TOE1 (GeneID 114034) | 2.01 | inactive
NTRK1 (GeneID 4914) | -1.49 | inactive
NTRK1 (GeneID 4914) | 0.23 | inactive
NTRK1 (GeneID 4914) | -1.08 | inactive
NTRK1 (GeneID 4914) | 0.44 | inactive
AHCYL1 (GeneID 10768) | -0.71 | inactive
AHCYL1 (GeneID 10768) | -0.37 | inactive
AHCYL1 (GeneID 10768) | -0.35 | inactive
AHCYL1 (GeneID 10768) | -0.6 | inactive
ZIM2 (GeneID 23619) | -0.45 | inactive
ZIM2 (GeneID 23619) | 0.02 | inactive
ZIM2 (GeneID 23619) | -0.36 | inactive
ZIM2 (GeneID 23619) | -0.71 | inactive
MCAM (GeneID 4162) | 0.57 | inactive
MCAM (GeneID 4162) | 1.45 | inactive

Next results follow:
target | TNF reporter robust z-score | Outcome
AP5Z1 (GeneID 9907) | -0.25 | inactive
AP5Z1 (GeneID 9907) | -0.18 | inactive
AP5Z1 (GeneID 9907) | 0.57 | inactive
AP5Z1 (GeneID 9907) | 0.11 | inactive
AFF3 (GeneID 3899) | 0.16 | inactive
AFF3 (GeneID 3899) | 0.06 | inactive
AFF3 (GeneID 3899) | -0.52 | inactive
AFF3 (GeneID 3899) | 0.38 | inactive
HOXB2 (GeneID 3212) | 0.95 | inactive
HOXB2 (GeneID 3212) | 1.43 | inactive
HOXB2 (GeneID 3212) | 1.69 | inactive
HOXB2 (GeneID 3212) | 1.27 | inactive
REEP6 (GeneID 92840) | 1.89 | inactive
REEP6 (GeneID 92840) | 2.94 | active
REEP6 (GeneID 92840) | -0.74 | inactive
REEP6 (GeneID 92840) | -0.19 | inactive
RAD23B (GeneID 5887) | -0.76 | inactive
RAD23B (GeneID 5887) | -0.75 | inactive
RAD23B (GeneID 5887) | -0.84 | inactive
RAD23B (GeneID 5887) | -1.68 | active
IFT46 (GeneID 56912) | -0.71 | inactive
IFT46 (GeneID 56912) | -1.57 | active
IFT46 (GeneID 56912) | -0.79 | inactive
IFT46 (GeneID 56912) | 0.15 | inactive
BCL7A (GeneID 605) | -0.6 | inactive
BCL7A (GeneID 605) | 0.02 | inactive
BCL7A (GeneID 605) | -0.4 | inactive
BCL7A (GeneID 605) | -0.95 | inactive
IRAK2 (GeneID 3656) | 1.92 | inactive
IRAK2 (GeneID 3656) | 0.18 | inactive
IRAK2 (GeneID 3656) | 1.07 | inactive
IRAK2 (GeneID 3656) | 0.5 | inactive
CDC42EP2 (GeneID 10435) | -0.03 | inactive
CDC42EP2 (GeneID 10435) | 0.62 | inactive
CDC42EP2 (GeneID 10435) | -0.59 | inactive
CDC42EP2 (GeneID 10435) | 0.65 | inactive
EIF2AK1 (GeneID 27102) | -1.08 | inactive
EIF2AK1 (GeneID 27102) | 0.69 | inactive
EIF2AK1 (GeneID 27102) | 0.03 | inactive
EIF2AK1 (GeneID 27102) | 0.76 | inactive
TMEM94 (GeneID 9772) | -1.51 | active
TMEM94 (GeneID 9772) | -0.66 | inactive
TMEM94 (GeneID 9772) | -1.22 | inactive
TMEM94 (GeneID 9772) | -0.57 | inactive
FAM174C (GeneID 55009) | -1.3 | inactive
FAM174C (GeneID 55009) | -1.32 | inactive
FAM174C (GeneID 55009) | -1.6 | active
FAM174C (GeneID 55009) | -1.11 | inactive
MVB12B (GeneID 89853) | -0.82 | inactive
MVB12B (GeneID 89853) | -1.25 | inactive
MVB12B (GeneID 89853) | -1.03 | inactive
MVB12B (GeneID 89853) | -1.17 | inactive
ZNF302 (GeneID 55900) | – | inactive
ZNF302 (GeneID 55900) | -0.15 | inactive
ZNF302 (GeneID 55900) | -0.18 | inactive
ZNF302 (GeneID 55900) | -0.19 | inactive
RYR2 (GeneID 6262) | -0.12 | inactive
RYR2 (GeneID 6262) | -0.68 | inactive
RYR2 (GeneID 6262) | -0.4 | inactive
RYR2 (GeneID 6262) | 0.3 | inactive
ENTPD5 (GeneID 957) | -0.56 | inactive
ENTPD5 (GeneID 957) | -0.59 | inactive
ENTPD5 (GeneID 957) | -1.38 | inactive
ENTPD5 (GeneID 957) | -0.53 | inactive
CRHBP (GeneID 1393) | 0.15 | inactive
CRHBP (GeneID 1393) | 0.05 | inactive
CRHBP (GeneID 1393) | 0.67 | inactive
CRHBP (GeneID 1393) | 0.58 | inactive
AXIN2 (GeneID 8313) | 2.66 | inactive
AXIN2 (GeneID 8313) | 2.61 | inactive
AXIN2 (GeneID 8313) | 1.59 | inactive
AXIN2 (GeneID 8313) | -0.8 | inactive
